Data on one molecule can be found in paper PMC11523213, “Fluorinated N-Heterocyclic Carbene Silver(I) Complexes with High Cancer Cell Selectivity” (Organometallics, 2024).

The test system of one test is MCF-7. As to the kind of experiment: Cell viability (MTT) assay, 24 h. In kind it is cell-based, human. Here is the method: (§1) Cell viability studies were conducted for cisplatin (CDDP), tamoxifen (Tam), ligands HL1(PF6) to H2L5(PF6)2, and Ag(I)-NHC complexes [Ag(L1)2](PF6) to [Ag2(L5)2](PF6)2 against human cell lines: breast adenocarcinomas (MDA-MB-231 and MCF-7) and noncancerous retinal epithelia (ARPE-19). All cells were treated with compounds for 24 h, and cell viability was determined via the MTT assay. The results are depicted in Figure 3a and Table S3 (Supporting Information). […] The corresponding Ag(I)-NHC complexes are all cytotoxic against both the MDA-MB-231 and MCF-7 cell lines. […] The nonfluorinated benzyl–imidazole complex [Ag2(L5)2](PF6)2 was synthesized and screened to determine if the fluorine has any influence on cytotoxicity. When comparing the nonfluorinated complex [Ag2(L5)2](PF6)2 with the corresponding fluorinated complex [Ag2(L3)2](PF6)2, the activity against MCF-7 is statistically similar. However, on comparison of the activities against the MDA-MB-231 cell line, the addition of fluorine improves the activity by >2.4-fold, highlighting that the addition of fluorine can improve cytotoxicity and potentially selectivity toward triple negative breast cancers.
(§2) All cytotoxicity assays were conducted using human cell lines: breast adenocarcinomas (MDA-MB-231 and MCF-7) and non-cancerous epithelial retinal (ARPE-19) cell lines. All cell lines were routinely maintained as monolayer cultures in an appropriate complete medium: MCF-7 and ARPE-19 in high glucose DMEM complete medium (including 10% FBS, 1 mM sodium pyruvate, 2 mM L-glutamine and 1% pen-strep) and MDA-MB-231 in RPMI-1640 complete medium (including 10% FBS, 1 mM sodium pyruvate, 2 mM L-glutamine and 1% pen-strep) and grown in either T-25 or T-75 flasks at 37 °C and 5% CO2. Prior to chemosensitivity studies, cell monolayers were passaged using Trypsin-EDTA (0.05%) and diluted to a concentration of 4 × 10^4 cells/mL. All assays were conducted using 96-well plates, in which 100 μL of the cell suspension was added for 24 h at 37 °C and 5% CO2 and then 100 μL of compound/media dilutions for a further 24 h (compound stocks were made using sterile DMSO at 100 mM prior to dilution and a maximum of 0.1% DMSO used in each assay).

The next test concerns MDA-MB-231. Briefly: Cell viability (MTT) assay, 24 h. Format: cell-based, human. On the procedure:
as §1, §2

In another test the test system is ARPE-19. Briefly: Cell viability (MTT) assay, 24 h, noncancerous cells. To be noted: Homo sapiens, 24 h treatment, n = 9, noncancerous retinal epithelia, read-out: IC50 ± SD, ARPE-19. Format: cell-based. Here is the method: All cells were treated with compounds for 24 h, and cell viability was determined via the MTT assay. […] The nonfluorinated benzyl–imidazole complex [Ag2(L5)2](PF6)2 was synthesized and screened to determine if the fluorine has any influence on cytotoxicity.
as §2

For `CC/C(=C(\c1ccccc1)c1ccc(OCCN(C)C)cc1)c1ccccc1` [Tam, tamoxifen], the IC50 (usually the concentration that inhibits the measured activity by half) in the test on MCF-7 (Homo sapiens, MCF7, 24 h treatment, MTT, n = 9, read-out: IC50 ± SD, MCF-7) was 36 ± 1 µM; in the test on MDA-MB-231 (Homo sapiens, MDA-MB-231, 24 h treatment, MTT, n = 9, read-out: IC50 ± SD, MDA-MB-231) it was 39.59 ± 0.06 µM; in the test on ARPE-19, 75 ± 1 µM. Also, the “Selectivity index (SI) MCF-7 vs ARPE-19” value with MCF-7 (SI > 1 indicates selectivity for the breast cancer line, * = minimum value) is listed as 2.08. The “Selectivity index (SI) MDA-MB-231 vs ARPE-19” value with MDA-MB-231 (SI > 1 indicates selectivity for the breast cancer line) was 1.89. In the test on MDA-MB-231 (ratio of IC50 MCF-7 versus MDA-MB-231), the “MCF-7/MDA-MB-231 SR (selectivity ratio)” value came to 0.91.
